US8623862B2, “Derivatives of N-[(1H-pyrazol-1-yl)aryl]-1H-indole or 1H-indazole-3-carboxamide, preparation thereof and applications thereof in therapeutics” (Sanofi, priority 2011, dated 2014)

Test system: platelet aggregation
Test: Inhibition of platelet aggregation in vitro (rat blood);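 further: aggregation induced by ADP added as 4 µL of a 250 µM solution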
Format: cell-based
Protocol: The measurements of platelet aggregation are performed at 37° C. in glass tubes (Chrono-Log—Kordia aggregometer).
Inhibition of Platelet Aggregation In Vitro (Rat Blood)
The blood is taken from male rats of the Sprague-Dawley strain, weighing 250-300 g.
The platelet-rich plasma (PRP) is obtained by centrifugation of the blood at 300 g for 5 minutes, and the measurements of platelet aggregation are performed as described above.
The results are calculated using the area under the curve of absorbance measured for 6 minutes, and expressed as percentage inhibition.

CCCC(=O)c1cnn(-c2ccc(NC(=O)c3cn(CC(=O)N4CCN(Cc5cc(C)on5)CC4)c4ccc(Cl)cc34)cc2)c1C.Cl [Compound 166]
IC50: 140 nM
